No constants are given. Whether binding was seen depends on the method and setting. Binding seen in cells or lysates may run through a third protein. These calls come from enrichment with a bait or labelling near it, and not all partners need be listed.
Biological target: TurboID-tagged BRD9 (human) (UniProt Q9H8M2)
Test: proximity labelling

Protein sequences, listed by entry. Tags and fused reporters are not part of them.
UniProt Q9H8M2: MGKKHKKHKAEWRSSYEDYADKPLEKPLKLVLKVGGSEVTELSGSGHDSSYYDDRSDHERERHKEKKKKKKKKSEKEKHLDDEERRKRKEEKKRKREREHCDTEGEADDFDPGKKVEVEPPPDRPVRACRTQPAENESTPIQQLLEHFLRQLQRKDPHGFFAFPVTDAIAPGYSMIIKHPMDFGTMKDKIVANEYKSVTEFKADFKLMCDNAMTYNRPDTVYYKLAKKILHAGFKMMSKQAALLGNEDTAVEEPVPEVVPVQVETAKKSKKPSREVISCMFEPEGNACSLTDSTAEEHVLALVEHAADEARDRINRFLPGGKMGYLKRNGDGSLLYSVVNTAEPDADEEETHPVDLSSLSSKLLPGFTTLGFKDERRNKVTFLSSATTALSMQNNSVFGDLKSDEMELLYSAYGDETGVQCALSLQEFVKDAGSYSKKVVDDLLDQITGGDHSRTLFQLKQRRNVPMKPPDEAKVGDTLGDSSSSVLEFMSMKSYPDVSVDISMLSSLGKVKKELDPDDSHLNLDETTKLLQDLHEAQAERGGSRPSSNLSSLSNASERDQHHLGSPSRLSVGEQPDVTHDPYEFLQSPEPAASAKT
UniProt Q9NZM4: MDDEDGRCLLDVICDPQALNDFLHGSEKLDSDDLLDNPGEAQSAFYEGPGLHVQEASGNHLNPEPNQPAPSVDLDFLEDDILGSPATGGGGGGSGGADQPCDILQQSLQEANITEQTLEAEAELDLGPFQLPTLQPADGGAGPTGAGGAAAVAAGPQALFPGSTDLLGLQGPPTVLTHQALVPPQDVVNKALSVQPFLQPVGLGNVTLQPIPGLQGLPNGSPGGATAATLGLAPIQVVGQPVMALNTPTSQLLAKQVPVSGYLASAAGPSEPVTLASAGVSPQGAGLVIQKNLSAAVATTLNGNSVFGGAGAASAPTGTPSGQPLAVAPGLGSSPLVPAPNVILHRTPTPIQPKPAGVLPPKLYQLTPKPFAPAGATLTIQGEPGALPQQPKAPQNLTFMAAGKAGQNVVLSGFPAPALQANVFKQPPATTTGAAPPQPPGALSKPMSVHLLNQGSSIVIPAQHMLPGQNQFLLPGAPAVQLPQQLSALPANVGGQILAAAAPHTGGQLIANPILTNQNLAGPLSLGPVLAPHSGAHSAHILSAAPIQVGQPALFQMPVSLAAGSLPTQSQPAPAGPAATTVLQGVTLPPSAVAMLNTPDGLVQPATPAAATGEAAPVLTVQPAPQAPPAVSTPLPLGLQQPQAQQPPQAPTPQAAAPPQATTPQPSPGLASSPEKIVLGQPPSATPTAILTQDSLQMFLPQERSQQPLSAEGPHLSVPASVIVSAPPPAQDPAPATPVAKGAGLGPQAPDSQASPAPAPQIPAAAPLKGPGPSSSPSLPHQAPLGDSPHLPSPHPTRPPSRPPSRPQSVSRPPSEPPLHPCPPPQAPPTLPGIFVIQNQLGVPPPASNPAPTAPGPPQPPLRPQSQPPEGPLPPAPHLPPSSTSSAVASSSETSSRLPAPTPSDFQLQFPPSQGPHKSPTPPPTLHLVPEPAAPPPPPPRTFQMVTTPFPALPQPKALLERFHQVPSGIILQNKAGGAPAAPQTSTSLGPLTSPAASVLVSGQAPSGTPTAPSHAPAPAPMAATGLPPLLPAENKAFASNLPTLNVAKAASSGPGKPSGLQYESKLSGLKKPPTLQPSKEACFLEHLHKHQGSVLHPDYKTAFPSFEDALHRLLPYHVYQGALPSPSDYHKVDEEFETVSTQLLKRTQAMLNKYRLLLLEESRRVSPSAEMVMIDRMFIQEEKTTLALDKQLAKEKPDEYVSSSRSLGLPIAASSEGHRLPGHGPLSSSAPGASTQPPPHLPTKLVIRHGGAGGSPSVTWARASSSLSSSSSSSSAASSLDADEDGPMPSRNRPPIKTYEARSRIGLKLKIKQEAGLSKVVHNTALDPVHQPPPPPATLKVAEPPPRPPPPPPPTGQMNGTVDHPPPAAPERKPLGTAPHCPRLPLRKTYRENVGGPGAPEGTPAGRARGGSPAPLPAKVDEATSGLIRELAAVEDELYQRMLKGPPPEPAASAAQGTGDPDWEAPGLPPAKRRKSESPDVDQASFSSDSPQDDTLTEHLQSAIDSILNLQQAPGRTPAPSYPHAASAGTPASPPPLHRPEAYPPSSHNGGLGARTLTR
UniProt Q6AI39: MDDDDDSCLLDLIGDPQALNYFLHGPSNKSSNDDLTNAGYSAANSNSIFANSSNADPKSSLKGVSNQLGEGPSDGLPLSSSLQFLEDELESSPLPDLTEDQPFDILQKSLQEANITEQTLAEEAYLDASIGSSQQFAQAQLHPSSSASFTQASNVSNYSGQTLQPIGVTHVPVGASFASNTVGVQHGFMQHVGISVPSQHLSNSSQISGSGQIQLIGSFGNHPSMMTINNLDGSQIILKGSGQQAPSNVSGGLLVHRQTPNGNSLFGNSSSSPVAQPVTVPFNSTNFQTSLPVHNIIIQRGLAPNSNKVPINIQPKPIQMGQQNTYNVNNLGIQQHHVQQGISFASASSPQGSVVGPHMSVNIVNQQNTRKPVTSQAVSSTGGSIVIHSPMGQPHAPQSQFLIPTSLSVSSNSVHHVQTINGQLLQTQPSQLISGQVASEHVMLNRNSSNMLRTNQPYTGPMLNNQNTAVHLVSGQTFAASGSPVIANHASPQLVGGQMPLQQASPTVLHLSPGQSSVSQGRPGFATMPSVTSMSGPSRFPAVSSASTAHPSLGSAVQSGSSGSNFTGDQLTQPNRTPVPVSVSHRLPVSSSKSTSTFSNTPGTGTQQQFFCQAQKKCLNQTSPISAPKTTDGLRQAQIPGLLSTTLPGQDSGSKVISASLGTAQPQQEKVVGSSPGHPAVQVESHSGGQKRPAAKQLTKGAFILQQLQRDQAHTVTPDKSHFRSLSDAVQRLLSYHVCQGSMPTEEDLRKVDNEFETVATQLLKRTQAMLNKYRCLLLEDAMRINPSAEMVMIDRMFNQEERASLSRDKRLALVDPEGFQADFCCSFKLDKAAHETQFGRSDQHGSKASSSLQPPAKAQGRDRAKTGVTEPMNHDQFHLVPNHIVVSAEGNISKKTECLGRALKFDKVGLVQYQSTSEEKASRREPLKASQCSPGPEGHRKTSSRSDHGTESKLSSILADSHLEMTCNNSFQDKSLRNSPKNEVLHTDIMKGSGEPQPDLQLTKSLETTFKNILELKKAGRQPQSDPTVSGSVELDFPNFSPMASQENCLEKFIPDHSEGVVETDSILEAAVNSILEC

| binding | Substance |
| --- | --- |
| binds | GLTSCR1 (from UniProt Q9NZM4 1-1560) |
| binds | GLTSCR1L (from UniProt Q6AI39 1-1079) |

From PMC8490982
